# This is one part of the list.
# B1: PX9961K-bvu-480-28-480 (Bacteroides vulgatus) (protein)
# chain: NKIPTTMAFRTVTDVDNAVNGLYDLMSGSGYYGAAMFAYGDMKGDDMQSSEESGVCNTCYMFNHRPNSLNAGSLWGRPFYILREAWNILNAIAEGKIESGDEKKLNALKGETMAVIALCQFDLTRCFGYPYTKDKGASLGAPLIDHLVGTYENPPRSTVAQAYDFIIETLEEAVTLMSEEKNNGRMNKYAARALLARIYLYHDDNRKAFDLADQLIKDADTSGSYALYPHEKYVAAWSVEAKFGSESFFEIANSVDDTPGRDSWGYLLNWYGYQKGFVTQKYAEQMLADPGDVRGHLLEENKYAGKTVWWLYKLRGTDLKTAPLECNNVVLRLSEVYLIAAEAGCKLGGDAAVQGLGYLNEIVKRGNPDNEVTMADYTLDRVLDERSKELVGEGHRFFDLLRNGKTIVRKGGYHLPSVDEEVDWDFYKCVLPIPEDQFIFSPEMEQNPGYPKN
# Key:
# Test in all cases: glycan array binding signal (z-score within array); higher = stronger binding
# Details in all cases: glycan notation: IUPAC condensed, linker removed
# [1] = target: Fuc(a1-2)[GalNAc(a1-3)]Gal(b1-3)GlcNAc(b1-6)GalNAc
# In short: (§1)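 Glycan array data were curated from 3228 arrays in the Consortium for Functional Glycomics database and kept only where the protein sequence was available. Glycan names were converted to IUPAC-condensed notation, and columns mapping to the same glycan were averaged. The binding signal is a within-array Z-score, averaged across arrays of the same protein sequence at different concentrations or buffers and across linkers. Negative Z-scores can be read as non-binding.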
# [2] = target: Fuc(a1-2)[GalNAc(a1-3)]Gal(b1-4)Glc
# In short: as §1
# [3] = target: Fuc(a1-2)[GalNAc(a1-3)]Gal(b1-4)GlcNAc
# In short: as §1
# [4] = target: Fuc(a1-2)[GalNAc(a1-3)]Gal(b1-4)GlcNAc(b1-2)Man
# In short: as §1
# [5] = target: Fuc(a1-2)[GalNAc(a1-3)]Gal(b1-4)GlcNAc(b1-2)Man(a1-3)[Fuc(a1-2)[GalNAc(a1-3)]Gal(b1-4)GlcNAc(b1-2)Man(a1-6)]Man(b1-4)GlcNAc(b1-4)GlcNAc
# In short: as §1
# [6] = target: Fuc(a1-2)[GalNAc(a1-3)]Gal(b1-4)GlcNAc(b1-2)Man(a1-3)[Fuc(a1-2)[GalNAc(a1-3)]Gal(b1-4)GlcNAc(b1-2)Man(a1-6)]Man(b1-4)GlcNAc(b1-4)[Fuc(a1-6)]GlcNAc
# In short: as §1
# [7] = target: Fuc(a1-2)[GalNAc(a1-3)]Gal(b1-4)GlcNAc(b1-3)Gal(b1-4)GlcNAc
# In short: as §1
# [8] = target: Fuc(a1-2)[GalNAc(a1-3)]Gal(b1-4)GlcNAc(b1-3)Gal(b1-4)GlcNAc(b1-3)Gal(b1-4)GlcNAc
# In short: as §1
# [9] = target: Fuc(a1-2)[GalNAc(a1-3)]Gal(b1-4)GlcNAc(b1-3)GalNAc
# In short: as §1
# [10] = target: Fuc(a1-2)[GalNAc(a1-3)]Gal(b1-4)GlcNAc(b1-3)[Fuc(a1-2)[GalNAc(a1-3)]Gal(b1-4)GlcNAc(b1-6)]GalNAc
# In short: as §1
# [11] = target: Fuc(a1-2)[GalNAc(a1-3)]Gal(b1-4)GlcNAc(b1-6)GalNAc
# In short: as §1
# [12] = target: Fuc(a1-2)[GalNAc(a1-3)]Gal(b1-4)[Fuc(a1-3)]GlcNAc
# In short: as §1
# [13] = target: Fuc(a1-2)[GalNAc(a1-3)]Gal(b1-4)[Fuc(a1-3)]GlcNAc(b1-3)GalNAc
# In short: as §1
# [14] = target: Fuc(a1-2)[GalNAc(a1-4)]Gal(b1-4)GlcNAc
# In short: as §1
# [15] = target: Fuc(a1-2)[GalNAc(b1-3)]Gal
# In short: as §1
# [16] = target: Fuc(a1-3)GlcNAc
# In short: as §1
# [17] = target: Fuc(a1-3)[Gal(b1-4)]Glc6S
# In short: as §1
# [18] = target: Fuc(a1-3)[Gal(b1-4)]GlcNAc
# In short: as §1
# [19] = target: Fuc(a1-3)[Gal(b1-4)]GlcNAc(b1-2)Man
# In short: as §1
# [20] = target: Fuc(a1-3)[Gal(b1-4)]GlcNAc(b1-2)Man(a1-3)[Fuc(a1-3)[Gal(b1-4)]GlcNAc(b1-2)Man(a1-6)]Man(b1-4)GlcNAc(b1-4)GlcNAc
# In short: as §1
# [21] = target: Fuc(a1-3)[Gal(b1-4)]GlcNAc(b1-2)Man(a1-3)[Fuc(a1-3)[Gal(b1-4)]GlcNAc(b1-2)Man(a1-6)]Man(b1-4)GlcNAc(b1-4)[Fuc(a1-6)]GlcNAc
# In short: as §1
# [22] = target: Fuc(a1-3)[Gal(b1-4)]GlcNAc(b1-3)Gal(b1-3)[Fuc(a1-4)]GlcNAc
# In short: as §1
# [23] = target: Fuc(a1-3)[Gal(b1-4)]GlcNAc(b1-3)Gal(b1-4)[Fuc(a1-3)]GlcNAc
# In short: as §1
# [24] = target: Fuc(a1-3)[Gal(b1-4)]GlcNAc(b1-3)Gal(b1-4)[Fuc(a1-3)]GlcNAc(b1-3)Gal(b1-4)[Fuc(a1-3)]GlcNAc
# In short: as §1
# [25] = target: Fuc(a1-3)[Gal(b1-4)]GlcNAc(b1-3)GalNAc
# In short: as §1
# [26] = target: Fuc(a1-3)[Gal(b1-4)]GlcNAc(b1-6)GalNAc
# In short: as §1
# [27] = target: Fuc(a1-3)[Gal(b1-4)]GlcNAc(b1-6)[Gal(b1-3)GlcNAc(b1-3)]Gal(b1-4)Glc
# In short: as §1
# [28] = target: Fuc(a1-3)[Gal(b1-4)]GlcNAc6S
# In short: as §1
# [29] = target: Fuc(a1-3)[Gal3S(b1-4)]Glc
# In short: as §1
# [30] = target: Fuc(a1-3)[Gal3S(b1-4)]GlcNAc
# In short: as §1
# [31] = target: Fuc(a1-3)[Gal3S(b1-4)]GlcNAc6S
# In short: as §1
# [32] = target: Fuc(a1-3)[GalNAc(b1-4)]GlcNAc
# In short: as §1
# [33] = target: Fuc(a1-3)[GalNAc(b1-4)]GlcNAc6S
# In short: as §1
# [34] = target: Fuc(a1-4)GlcNAc
# In short: as §1
# [35] = target: Fuc(b1-3)GlcNAc
# In short: as §1
# [36] = target: Gal(a1-2)Gal
# In short: as §1
# [37] = target: Gal(a1-3)Gal
# In short: as §1
binder,measurement,setting,value
B1,glycan array binding signal (z-score),[1],0.095
same,glycan array binding signal (z-score),[2],1.01
same,glycan array binding signal (z-score),[3],-0.06
same,glycan array binding signal (z-score),[4],-0.109
same,glycan array binding signal (z-score),[5],-0.557
same,glycan array binding signal (z-score),[6],0.01
same,glycan array binding signal (z-score),[7],0.284
same,glycan array binding signal (z-score),[8],-0.442
same,glycan array binding signal (z-score),[9],0.023
same,glycan array binding signal (z-score),[10],-0.533
same,glycan array binding signal (z-score),[11],-0.293
same,glycan array binding signal (z-score),[12],0.123
same,glycan array binding signal (z-score),[13],-0.283
same,glycan array binding signal (z-score),[14],0.086
same,glycan array binding signal (z-score),[15],-0.496
same,glycan array binding signal (z-score),[16],-0.091
same,glycan array binding signal (z-score),[17],0.583
same,glycan array binding signal (z-score),[18],0.676
same,glycan array binding signal (z-score),[19],-0.349
same,glycan array binding signal (z-score),[20],0.232
same,glycan array binding signal (z-score),[21],-0.345
same,glycan array binding signal (z-score),[22],-0.35
same,glycan array binding signal (z-score),[23],0.387
same,glycan array binding signal (z-score),[24],0.348
same,glycan array binding signal (z-score),[25],0.085
same,glycan array binding signal (z-score),[26],0.711
same,glycan array binding signal (z-score),[27],-0.222
same,glycan array binding signal (z-score),[28],0.539
same,glycan array binding signal (z-score),[29],0.709
same,glycan array binding signal (z-score),[30],-0.241
same,glycan array binding signal (z-score),[31],-0.517
same,glycan array binding signal (z-score),[32],0.307
same,glycan array binding signal (z-score),[33],-0.604
same,glycan array binding signal (z-score),[34],-0.743
same,glycan array binding signal (z-score),[35],-0.16
same,glycan array binding signal (z-score),[36],0.018
same,glycan array binding signal (z-score),[37],-0.487

# Reformatted as tab-separated lines: entries from further up
binder	measurement	setting	value
B1	glycan array binding signal (z-score)	[30]	-0.241
same	glycan array binding signal (z-score)	[37]	-0.487

# — the supplement of paper PMC8728848
